# Data: patent EP0298064A2, “Birth control and diagnostic methods” (BIOCARB AB, priority 1987, dated 1989)
# Some of these results come from one statement about several compounds together.
# Tested on: 667/9E9
# Test: Inhibition by oligosaccharide of 667/9E9 staining of endometrial sections
# Assay type: binding, mice
# Conditions: day 4 and 5 sections; at even higher concentrations (than 1 mM)
# Experimental: Fixed or unfixed sections were hydrated in Dulbecco's phosphate buffer pH 7.2, containing 0.1% Bovine serum albumin and 0.05% Tween 20. All antibodies and sera were diluted in the same buffer. The sections were incubated for 30 minutes in a 1/20 dilution of normal non immune goat serum […] to prevent nonspecific binding. Monoclonal antibody supernatants were diluted to either 1/10 or 1/20. The sections were overlayered with 50 µl of the primary antibody and incubated overnight in a humidified atmosphere at 4°C. Following this the sections were rinsed 4 times in the buffer and again incubated for 30 minutes in 1/20 normal goat serum. They were then stained with the second antibody, a fluorescein isothiocyanate (FITC) conjugated goat anti-mouse IgM at a final dilution of 1/80. The sections were finally rinsed in the buffer and mounted in 2.5% DABCO (Boehringer Mannheim, Germany) in 80% glycerol.
compound,measurement,value
"CC(=O)N[C@H]1[C@H](O[C@H]2[C@@H](O)[C@@H](CO)O[C@@H](O[C@H]3[C@H](O)[C@@H](O)C(O)O[C@@H]3CO)[C@@H]2O)O[C@H](CO)[C@@H](O)[C@@H]1O[C@@H]1O[C@H](CO)[C@H](O)[C@H](O)[C@H]1O (stereo partly shown) [structure B, reference compound]",inhibition of the staining of the endometrial sections by 667/9E9,could not affect the staining
